Results published in PubChem BioAssay AID540256 (National Center for Advancing Translational Sciences (NCATS), 2011).
Where “and” joins values, the source holds several entries; their conditions need not be identical. Identical values can stand only once. About 3,700 (1.2%) of roughly 300,000 compounds were called active. The shares of active, inactive and inconclusive entries below differ from those in the screen. Calls follow the shape of the full dose curve; tested in HEK293 cells. A potency beside an inconclusive call is a rough fit, not a confirmed value.

Assay: qHTS for Inhibitors of binding or entry into cells for Lassa Virus; also: nearly all actives have a fitted effect of over 50% in size
Settings: Lassa virus pseudotype entry inhibition, cell reporter; activity change, negative = inhibition: at 37.9 µM (top of the series) unless noted
% is scaled to controls: 0 for no effect and ±100 for the full control effect; potency is read from the fitted curve at half-maximal effect.

SMILES | Potency | activity change, negative = inhibition
CC1(C)CC(N2CCCC2)=CC(=[N+]2CCCCCC2)C1 | inconclusive: 7.3 µM [inhibitor, partial curve, poor fit] | 
CCc1ccccc1NC(=O)c1cnn(-c2ccccc2)c1C |  | inconclusive: 31.8% [activator]
C=CCn1c(SCc2c(C)noc2C)nc2sc3c(c2c1=O)CCCC3 | inconclusive: 7.3 µM [inhibitor, partial curve, poor fit] | 
COc1ccccc1NC(=O)CSc1nc(O)c(C/C=C/c2ccccc2)c(=O)[nH]1 | inactive | 
CN(CCC1CCOCC1)C(=O)CC1C(=O)NCCN1Cc1ccccc1F (centres undefined) | inactive | 
CCc1nnc(NC(=O)CSc2nccn2Cc2ccc(C)cc2)s1 | inconclusive: 35.5 µM [inhibitor, single point] | 
COc1ccc(CNC(=O)c2nc(SCc3ccc(C)cc3)ncc2Cl)cc1 | inconclusive: 14.1 µM [inhibitor, single point] | 
Cc1ccc(Oc2nc3ccccn3c(=O)c2/C=C(\C#N)C(=O)Nc2c(C)n(C)n(-c3ccccc3)c2=O)c(C)c1 | inconclusive: 11.2 µM [inhibitor, partial curve, poor fit] | 
Cc1ccc(C(=O)n2nc(C)c(S(=O)(=O)N3CCCCCC3)c2C)cc1C | inactive | 
O=C(N/N=C/c1ccc[nH]1)c1ccc(Cl)cc1 | inconclusive: 35.5 µM [inhibitor, single point] | 
COc1cc(/C=C2\C(=O)ON=C2c2ccccc2)cc(Cl)c1O | inactive | 
O=[N+]([O-])c1ccc(S(=O)(=O)CC(CN2CCCCC2)N2CCCCC2)cc1 (centres undefined) | active: 5.17 µM | 
C=CCN(CC=C)CCOc1cc(C)ccc1[N+](=O)[O-] | inactive | 
Cc1ccc(-n2nc(C(=O)Nc3ccc(F)cc3Cl)c(=O)n(C)c2=O)cc1 | inactive | 
CN(Cc1ccccc1)c1nnc(NC(=O)Nc2cccc(Br)c2)s1 | inconclusive: 35.5 µM [inhibitor, single point] | 
CC(=O)OC1CCC(OC(C)=O)c2c1n([O-])c(C)c(C)[n+]2=O (centres undefined) | inactive | 
Cc1cc(N2CCN(C)CC2)nc2ccc(NC(=O)c3ccc(C(C)(C)C)cc3)cc12 | inactive | 
O=C(CN(C(=O)Cn1nnc(-c2ccc(F)cc2)n1)c1ccc(F)cc1)NC1CCCC1 | inactive | 
COc1ccccc1C1=NOC(Cn2c(NCCCO)nc3c2c(=O)n(C)c(=O)n3C)C1 (centres undefined) | inconclusive: 0.0891 µM [inhibitor, full curve, poor fit] | 
CNC(=O)c1c(Cl)cnn1-c1ccccc1 | inconclusive: 7.08 µM [activator, full curve] | 
O=C(Nc1cc(-c2ccccc2)[nH]n1)c1ccccc1 | inconclusive: 31.6 µM [inhibitor, single point] | 
CC(NC(=O)c1ccc(F)cc1)C(c1cccs1)N1CCN(C)CC1 (centres undefined) | inactive | 
Cc1cccc(Cn2c(=O)n(CCCC(=O)NCc3ccco3)c(=O)c3ccccc32)c1 | inconclusive: 11.2 µM [inhibitor, partial curve, poor fit] | 

SMILES | Potency | activity change, negative = inhibition
CCn1c(=S)sc2c(=O)[nH]c(C)nc21 | inconclusive: 1.16 µM [activator, single point] | 
O=C(c1ccccc1)c1nnc(-c2ccccc2F)o1 | inconclusive: 1.26 µM [activator, full curve, poor fit] | 
Cc1ccc(C(=O)Nc2ccc(SC(F)F)cc2)s1 | inconclusive: 15.8 µM [inhibitor, partial curve, poor fit] | 
CCC(=O)N1CCc2cc(CNC(=O)Nc3ccc(OC)cc3OC)ccc21 | inactive | 
O=C(NCCc1ccccc1)C(=O)NCC(c1cccnc1)N1CCN(c2ccc(F)cc2)CC1 (centres undefined) | inconclusive: 10 µM [inhibitor, partial curve, poor fit] | 
Cc1c(C=O)c2ccccc2n1Cc1ccc([N+](=O)[O-])cc1 | inconclusive: 35.5 µM [inhibitor, single point] | 
O=C(CCC1COc2ccccc2O1)N1CCCC1 (centres undefined) | inactive | 
CC(=O)C(C)Oc1ncn(-c2ccccc2)n1 (centres undefined) | inconclusive: 8.91 µM [activator, partial curve, poor fit] | 
O=C(c1cccs1)N1CCCc2cc(NS(=O)(=O)c3ccc(Cl)cc3)ccc21 | inconclusive: 35.5 µM [inhibitor, single point] | 
Cc1ccc(S(=O)(=O)NCc2cccnc2)cc1 | inconclusive: 8.91 µM [activator, partial curve, poor fit] | 
O=C(c1ccco1)c1cn(CCOc2ccc(Cl)cc2)c2ccccc12 | inconclusive: 3.16 µM [activator, full curve, poor fit] | 
CC(C)C(=O)Nc1ccc2c(c1)oc1ccccc12 | inconclusive: 1.46 µM [activator, full curve] | 
CCOC(=O)c1c(C)[nH]c(C(=O)N2CCc3cc(OC)c(OC)cc3C2)c1C | inconclusive: 17.8 µM [inhibitor, single point] | 
CCc1cccc2c3c([nH]c12)C(CC)(CC(=O)O)OCC3 (centres undefined) | inconclusive: 23.1 µM [activator, single point] | 
CCOc1ccc(Nc2nc3ccccc3c3nnc(CC)n23)cc1 | inconclusive: 7.08 µM [activator, partial curve] | 
Cc1ccc(C(=O)OCc2nc3ccccc3s2)o1 | inconclusive: 20 µM [activator, partial curve, poor fit] | 
Oc1c(Cl)cc(Cl)cc1/C=N/NC(=S)NC1CC2C=CC1C2 (centres undefined) | inconclusive: 12.6 µM [inhibitor, partial curve, poor fit] | 
COc1ccc(NS(=O)(=O)c2ccc3[nH]c4c(c3c2)CCCC4)c(OC)c1 | inconclusive: 10 µM [inhibitor, partial curve, poor fit] | 
CCCc1sc(N/N=C/c2ccccn2)nc1-c1ccc(Br)cc1 | active: 5.17 µM | 
Cc1csc(SCC(=O)c2cc(C)n(Cc3cccs3)c2C)n1 | active: 0.794 µM | 
COc1cccc(NC(=O)Cn2c(=O)n(-c3cccc(OC)c3)c(=O)c3c4c(sc32)CCCC4)c1 | inactive | 
NC(=O)C(=O)N/N=C1\CCc2ccccc21 | inactive | 
Cc1ccc(C(=O)N(Cc2nc3ccccc3c(=O)[nH]2)C2CCCC2)cc1 | inconclusive: 15.8 µM [inhibitor, single point] | 

SMILES | Potency | activity change, negative = inhibition
O=C1N(Cc2ccc(F)cc2)c2ccccc2[C@@]12O[C@H](COc1ccccc1)CC1CCCC12 (some centres undefined) | inconclusive: 1.5 µM [activator, partial curve, poor fit] | 
Cc1cc(C)c(Cn2c(=O)n(CCCCCC(=O)NCc3ccc4c(c3)OCO4)c(=O)c3sccc32)c(C)c1 | inconclusive: 22.4 µM [activator, single point] | 
O=C(NCc1csc(-c2cccs2)n1)c1cccc(Cl)c1 | inconclusive: 22.4 µM [inhibitor, single point] | 
O=C(CSCc1ccc(F)cc1)N1CCN(c2ccccc2)CC1 | inactive and inconclusive: 6.31 µM [inhibitor, single point] | 
O=C1CC(N2CCOCC2)C(=O)N1CCN1C(=O)CC(N2CCOCC2)C1=O (centres undefined) | inconclusive: 2.91 µM [inhibitor, partial curve, poor fit] | 
O=C(CCc1ccccc1)NCC(c1ccco1)N1CCc2ccccc21 (centres undefined) | inconclusive: 3.16 µM [inhibitor, full curve] | 
Cc1ccnc(N2CCC(C(=O)Nc3cccc(C(F)(F)F)c3)CC2)n1 | inconclusive: 5.17 µM [inhibitor, partial curve, poor fit] | 
Cc1nnn(C23CC4CC(CC(CC(=O)Nc5cccc(F)c5)(C4)C2)C3)n1 | inactive | 
O=C1C(Cl)=C(NC(=O)c2ccccc2)C(=O)C(Cl)=C1NC(=O)c1ccccc1 | inconclusive: 22.4 µM [inhibitor, partial curve, poor fit] | 
COc1ccc(C=O)cc1CN1C(=O)c2ccccc2C1=O | inactive | 
CCN1CCN(C(=O)c2cc(-c3cccnc3)nc3ccc(Br)cc23)CC1 | inconclusive: 1.3 µM [inhibitor, partial curve, poor fit] | 
Cc1noc(C)c1S(=O)(=O)N1CCCC(C(=O)NCC2CCCO2)C1 (centres undefined) | inactive | 
Cc1cccc(OCC(=O)NCC(c2cccs2)N2CCOCC2)c1 (centres undefined) | inactive | 
N#CSCC(=O)N1c2ccccc2CCc2ccccc21 | inconclusive: 29.1 µM [inhibitor, single point] | 
Cc1ccc(-n2nc3cc(Cl)c(NC(=O)c4ccco4)cc3n2)cc1 | inconclusive: 6.51 µM [activator, single point] | 
O=C(Nc1ccon1)Nc1ccc(F)cc1F | inactive | 
COCCC1CCCCN1C(=O)c1cccc(OC2CCN(C3CCCC3)CC2)c1 (centres undefined) | inactive | 
CCc1ccc(-c2nc(SCC(=O)NC3CCS(=O)(=O)C3)n[nH]2)cc1 (centres undefined) | inconclusive: 5.01 µM [activator, full curve, poor fit] | 
CCOC(=O)C(O)(c1ccc(NC(=O)NC2CCCCC2)cc1)C(F)(F)F (centres undefined) | inconclusive: 6.51 µM [inhibitor, partial curve, poor fit] | 
Cc1ccc(NC(=O)Nc2cc3c(cc2N2CCCCC2)n(C)c(=O)n3C)cc1Cl | inconclusive: 15.8 µM [inhibitor, single point] | 
Cc1c(CCC(=O)O)c(=O)oc2cc3occ(-c4ccccc4)c3cc12 | inconclusive: 31.6 µM [inhibitor, partial curve, poor fit] | 
O=C(NCc1ccc(F)cc1)C1CC(=O)N(Cc2ccco2)C1 (centres undefined) | inactive | 
COc1ccccc1Oc1ccc(N2CC(C(=O)OCC(=O)c3ccccc3)CC2=O)cc1 (centres undefined) | inactive | 
